According to article PMC6156764:
No constants are given. Whether binding was seen depends on the method and setting. Binding seen in cells or lysates may run through a third protein. Some entries that bind do so weakly or less than the wild type. Tags and fused reporters may be left off the sequences shown.

Protein sequences, listed by entry. Tags and fused reporters are not part of them.
UniProt Q15562: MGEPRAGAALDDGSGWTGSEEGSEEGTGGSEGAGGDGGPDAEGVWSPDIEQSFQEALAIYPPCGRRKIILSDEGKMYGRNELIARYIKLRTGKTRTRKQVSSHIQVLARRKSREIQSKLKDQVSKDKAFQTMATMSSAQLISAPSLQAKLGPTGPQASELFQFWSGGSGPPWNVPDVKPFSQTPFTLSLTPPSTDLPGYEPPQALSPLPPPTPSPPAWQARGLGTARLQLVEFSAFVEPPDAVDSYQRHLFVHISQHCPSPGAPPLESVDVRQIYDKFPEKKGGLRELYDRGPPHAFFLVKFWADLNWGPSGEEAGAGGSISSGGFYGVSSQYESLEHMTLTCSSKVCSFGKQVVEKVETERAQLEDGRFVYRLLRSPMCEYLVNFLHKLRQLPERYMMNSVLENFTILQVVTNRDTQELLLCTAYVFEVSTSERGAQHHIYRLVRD

Target: T1, Flag-tagged human guanylate-binding protein 1 (GBP-1), full length (human) (UniProt P32455)
T1 sequence: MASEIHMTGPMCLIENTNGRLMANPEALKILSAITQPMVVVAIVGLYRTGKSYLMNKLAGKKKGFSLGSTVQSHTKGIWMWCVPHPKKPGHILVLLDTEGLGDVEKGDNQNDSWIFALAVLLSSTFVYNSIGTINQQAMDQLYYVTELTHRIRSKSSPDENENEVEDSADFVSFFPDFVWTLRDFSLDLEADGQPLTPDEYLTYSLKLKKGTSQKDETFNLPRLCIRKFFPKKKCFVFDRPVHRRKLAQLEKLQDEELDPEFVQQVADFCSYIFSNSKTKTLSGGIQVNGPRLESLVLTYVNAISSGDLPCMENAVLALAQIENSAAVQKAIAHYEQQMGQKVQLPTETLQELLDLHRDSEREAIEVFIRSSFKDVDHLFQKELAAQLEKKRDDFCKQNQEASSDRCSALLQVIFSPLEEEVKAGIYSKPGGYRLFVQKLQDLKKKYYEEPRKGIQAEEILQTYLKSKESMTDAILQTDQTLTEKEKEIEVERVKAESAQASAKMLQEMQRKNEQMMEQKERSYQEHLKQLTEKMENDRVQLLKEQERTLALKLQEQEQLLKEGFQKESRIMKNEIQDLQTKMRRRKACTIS
Assay: co-IP; Flag M2 antibody affinity gel precipitates the Flag-tagged protein from lysates of transfected DLD1 or HeLa cells; endogenous TEAD detected by western blot (pan-TEAD, TEAD1, TEAD2 or TEAD3 antibody)

- binding: binds
Substance: endogenous TEAD2 (from UniProt Q15562 1-447)
